Measured data: PubChem BioAssay AID1224830 (NIAID, 2016)
Screen: 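Host factors that control LPS-induced TNF expression in human macrophages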 (primary screen). Cell system: human THP-1 monocytic leukaemia cells, TNF dual-luciferase reporter clone, PMA-differentiated to macrophage-like cells. Reagent: siRNA pool against human genes, 50 nM. Duration: LPS for 4 h, given about 3 days after siRNA transfection. Treatment: bacterial LPS (TLR4 ligand), 10 ng/ml. Detection: 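TNF firefly reporter luminescence divided by renilla, normalised to the plate median, then turned into a robust z-score for each replicate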. Reading the numbers: TNF reporter robust z-score: higher = stronger TNF reporter response to LPS. Hit rule: 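Each well counts as active if its z-score is over 2.8 or under -1.5; controls are left without a call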.
This is a random part of about 18,000 reagents tested. Over the whole deposit, about 2,900 (16%) are marked active. 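Calls are made per well; low scores hint the gene aids the LPS response, high scores that it dampens it.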 A number with no mark means an inactive call. Repeated entries: four replicate wells of each siRNA pool. Reagent sequences are not shown.

The opening 7 records as a preview:
gene,TNF reporter robust z-score
CEACAM16,3.58 (active)
CEACAM16,3.26 (active)
CEACAM16,0.09
CEACAM16,0.48
TMEM62,0.22
TMEM62,1.65
TMEM62,2.37

The list itself, from the first entry:
gene,TNF reporter robust z-score
CEACAM16,3.58 (active)
CEACAM16,3.26 (active)
CEACAM16,0.09
CEACAM16,0.48
TMEM62,0.22
TMEM62,1.65
TMEM62,2.37
TMEM62,0.68
CDHR5,0.59
CDHR5,-0.36
CDHR5,-0.44
CDHR5,0.01
IFNA16,-1.36
IFNA16,-0.62
IFNA16,-0.36
IFNA16,-1.07
SSX4,-0.38
SSX4,-0.15
SSX4,-1.52 (active)
SSX4,-0.56
GRM6,-0.91
GRM6,-0.11
GRM6,1.01
GRM6,-0.15
MTDH,-0.95
MTDH,2.57
MTDH,2.27
MTDH,-0.29
CAMK1D,-1.47
CAMK1D,-0.62
CAMK1D,-1.15
CAMK1D,-0.01
PCBD2,0.24
PCBD2,1.14
PCBD2,3.02 (active)
PCBD2,1.13
SCML4,-1.2
SCML4,-1.26
SCML4,-0.38
SCML4,-0.58
PSCA,1.31
PSCA,0.41
PSCA,-0.05
PSCA,-0.17
ABI2,1.17
ABI2,0.81
ABI2,0.98
ABI2,1.01
TXNDC17,0.59
TXNDC17,1.59
TXNDC17,0.97
TXNDC17,1.03
EPPIN,0.41
EPPIN,1.23
EPPIN,-0.24
EPPIN,2.89 (active)
GPR87,3.88 (active)
GPR87,0.6
GPR87,-0.1
GPR87,0.26
HLA-DRB1,0.14
HLA-DRB1,0.19
HLA-DRB1,0.34
HLA-DRB1,1.98
DUOX2,-0.92
DUOX2,0.76
DUOX2,0.48
DUOX2,1.5
CCDC3,-0.75
CCDC3,-0.31
CCDC3,-0.69
CCDC3,0.21
SNX8,0.24
SNX8,-1.01
SNX8,0.16
SNX8,-0.82
